# Experimental data: PubChem BioAssay AID504808 (Drosophila RNAi Screening Center, 2011)
# Test: 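Genes whose loss lifts activity of an E2F-responsive reporter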 (primary screen)
# System: Drosophila S2 cells
# Reagent: long dsRNA against Drosophila genes
# Detection: 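Dual luciferase plate measurements; E2F-specific signal taken as firefly over Renilla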
# Reading the numbers: E2F firefly: higher = more E2F reporter activity; Renilla normaliser: higher = more normaliser reporter signal
# Call rule: 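Called active if the normalised E2F reporter went up by over 50%; the cutoff is arbitrary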
# In all, the deposit lists about 21,000 reagents; below is a random part of those with a known target gene and a result. Over the whole deposit, 18 (0.084%) were called active. 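Raw counts without plate normalisation, one of two replicates; the ratio scores behind the calls were not deposited.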 Entries without a mark were called inactive. Reagent sequences are not shown. Not given: the amount of reagent, the time to read-out.
"E2F firefly, rep 1","Renilla normaliser, rep 1",Target gene,DRSC id
1.04e5,5935,Pex11c (Peroxin 11c),DRSC14677
87123,3976,CG13285,DRSC09960
62684,3665,beta'COP (Coat Protein (coatomer) beta'),DRSC03492
1.41e5,5516,CG34457,DRSC06924
1.42e5,5907,CG9396,DRSC16487
2658,206,Pef (Peflin),DRSC06695
1.33e5,6304,HDAC4 (Histone deacetylase 4),DRSC19780
1.55e5,5553,CG10031,DRSC00286
77330,3534,chif (chiffon),DRSC03508
1.36e5,5514,Tbcc (Tubulin-binding cofactor C),DRSC00223
1.67e5,8625,CG13060,DRSC09943
1.04e5,4705,CG15263,DRSC01974
1.22e5,5875,Dtwd2 (DTW domain containing 2),DRSC12501
1.50e5,5422,CG15406,DRSC00420
1.51e5,5549,CG6398,DRSC19992
1.17e5,6586,CG12783,DRSC14538
77701,3794,Rsph3 (Radial spoke head protein 3),DRSC09696
96237,3959,Rsph3 (Radial spoke head protein 3),DRSC10211
1.42e5,5243,salr (spalt-related),DRSC03607
71983,3200,CG6761,DRSC10705
1.21e5,5043,CalpC (Calpain C),DRSC19873
1.08e5,5277,CG14410,DRSC19596
98968,4799,CG7017,DRSC10762
1.68e5,10318,CG4949,DRSC19926
1.32e5,6679,sqz (squeeze),DRSC16980
92393,4372,nompA (no mechanoreceptor potential A),DRSC06329
87501,3738,Oscillin,DRSC03001
87421,3741,CG3829,DRSC04423
98647,3826,CG5644,DRSC10531
1.36e5,6392,Sec61gamma (Sec61 gamma subunit),DRSC19570
2094,952,CG1896,DRSC15397
1.46e5,5606,CG18301,DRSC02662
87179,2159,Hsp67Bc (Heat shock gene 67Bc),DRSC11193
1.15e5,6268,CCAP-R (Crustacean cardioactive peptide receptor),DRSC14891
1.04e5,5907,CCAP-R (Crustacean cardioactive peptide receptor),DRSC15967
7251,760,"FucT6 (alpha1,6-fucosyltransferase)",DRSC19848
1.22e5,6304,CG33308,DRSC01419
1.25e5,8410,TyrR (Tyramine receptor),DRSC16242
1.48e5,8223,CG13055,DRSC09936
87894,3656,CG3618,DRSC11746
1.10e5,5994,AstA-R2 (Allatostatin A receptor 2),DRSC14171
1.56e5,5572,CG8142,DRSC20086
95309,3792,ND-MLRQ (NADH dehydrogenase (ubiquinone) MLRQ subunit),DRSC11913
1.53e5,7598,dnd (dead end),DRSC16064
1.35e5,5905,CG1674,DRSC17142
1.30e5,7149,CG14280,DRSC14761
1.27e5,7126,Rim (Rab3 interacting molecule),DRSC16224
70625,3894,Rim (Rab3 interacting molecule),DRSC16225
58579,3025,Rim (Rab3 interacting molecule),DRSC16226
1.56e5,7657,Rim (Rab3 interacting molecule),DRSC16227
85946,3990,TBPH (TAR DNA-binding protein-43 homolog),DRSC04660
1.36e5,7746,Nnk (Nicknack),DRSC15274
1.21e5,6740,Synd (Syndapin),DRSC15116
91132,3951,CG33120,DRSC02073
83132,3422,S-Lap3 (Sperm-Leucylaminopeptidase 3),DRSC10956
1.25e5,5287,dgt4 (dim gamma-tubulin 4),DRSC18659
63474,3004,row (relative of woc),DRSC07076
1.11e5,4555,row (relative of woc),DRSC07077
67993,3482,ClC-c (Chloride channel-c),DRSC10499
70929,3748,CG5033,DRSC07410
61766,3337,VhaPPA1-1 (Vacuolar H[+] ATPase PPA1 subunit 1),DRSC16170
1.17e5,6050,CG14545,DRSC14889
96126,3822,CG13300,DRSC09974
7998,688,pkm (Pinkman),DRSC19674
1.13e5,4715,Su(H) (Suppressor of Hairless),DRSC03445
1.05e5,6053,CG5246,DRSC15751
58159,3170,CG12170,DRSC12199
1.12e5,4898,Prosbeta2R2 (Proteasome beta2 subunit-related 2),DRSC12193
61309,3111,Picot,DRSC07508
99184,3853,CG7810,DRSC03072
1.11e5,4216,CG13675,DRSC08908
76354,3363,CG13675,DRSC10034
157,38,Spn47C (Serpin 47C),DRSC07030
1.55e5,5641,CG11374,DRSC00306
96831,5880,"ATPsynepsilonL (ATP synthase, epsilon subunit-like)",DRSC14548
90879,3986,Srp19 (Signal recognition particle 19),DRSC11288
51344,3463,CG18635,DRSC06780
95187,3805,CG13437,DRSC06397
90503,5297,CG31161,DRSC16144
91304,3568,Col4a1 (Collagen type IV alpha 1),DRSC03291
1.19e5,6757,CG33268,DRSC10143
1808,916,CG1774,DRSC15258
99067,5596,Cyp6a18 (Cytochrome P450 6a18),DRSC16632
8207,804,Atg5 (Autophagy-related 5),DRSC18112

Laid out differently: results already given.
Nnk (Nicknack) [DRSC15274]: E2F firefly, rep 1 = 1.36e5; Renilla normaliser, rep 1 = 7746
Synd (Syndapin) [DRSC15116]: E2F firefly, rep 1 = 1.21e5; Renilla normaliser, rep 1 = 6740
CG33120 [DRSC02073]: E2F firefly, rep 1 = 91132; Renilla normaliser, rep 1 = 3951
S-Lap3 (Sperm-Leucylaminopeptidase 3) [DRSC10956]: E2F firefly, rep 1 = 83132; Renilla normaliser, rep 1 = 3422
dgt4 (dim gamma-tubulin 4) [DRSC18659]: E2F firefly, rep 1 = 1.25e5; Renilla normaliser, rep 1 = 5287
